Values of other authors as cited in US20060058390A1 (priority 2004, published 2006).
At least one compound was matched to its structure with a doubt left.

Conditions: cited from earlier work

## CSCCC(=O)C(=O)O [2-keto-methylthiobutyrate]
  toxicity: non-toxic, even at high levels
